Data published in PubChem BioAssay AID1439 (NMMLSC, 2008).
Screen size: about 220,000 compounds; about 770 (0.35%) were called active. The shares of active, inactive and inconclusive entries below differ from those in the screen. No stated cut-off is given here; in the data, active means binding response below about 49% or above about 150%; inconclusive means no clear call, values can overlap the other calls; inactive means in between.

By UniProt entry, the sequences of proteins in these tests, tags left out.
UniProt P09471, whole entry, looked up: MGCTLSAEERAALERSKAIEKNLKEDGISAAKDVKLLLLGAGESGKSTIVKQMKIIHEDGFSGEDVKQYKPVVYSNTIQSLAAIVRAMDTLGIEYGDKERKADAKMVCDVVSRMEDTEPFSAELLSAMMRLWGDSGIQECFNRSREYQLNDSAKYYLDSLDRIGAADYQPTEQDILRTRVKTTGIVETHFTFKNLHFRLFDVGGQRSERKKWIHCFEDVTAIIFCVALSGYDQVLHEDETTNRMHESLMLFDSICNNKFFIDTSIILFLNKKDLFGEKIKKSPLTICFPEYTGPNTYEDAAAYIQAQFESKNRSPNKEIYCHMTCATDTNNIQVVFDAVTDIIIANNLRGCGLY

target: Guanine nucleotide-binding protein G(o) subunit alpha (Homo sapiens) (UniProt P09471); assay: RGS7-Galphao binding modulators, primary screen, biochemical, multiplexed bead flow cytometry (AID 1439); settings: at 10 µM, actives lie on both sides;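 further: fluorescent Galphao held in activated GDP-AlF4 state binding bead-coupled RGS7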

| Structure (SMILES) | binding response (% of control) |
| --- | --- |
| O=C(Nc1ccc(S(=O)(=O)Nc2ncccn2)cc1)c1ccccc1NS(=O)(=O)c1ccc(Cl)cc1 | inconclusive: 153% |
| O=c1[nH]c(N2CCCCCC2)nc2ncn(Cc3ccccc3)c12 | inconclusive: 101% |
| CCOc1ccc2nc(NC(=O)C(NS(=O)(=O)c3cccc4nsnc34)C(C)C)sc2c1 (stereo not given) | inactive: 137% |
| Nc1c(C(=O)c2ccccc2)oc2ccc([N+](=O)[O-])cc12 | inconclusive: 103% |
| CN(CCc1ccccn1)C(=O)c1cccnc1Oc1ccc(Cl)cc1 | inconclusive: 72.1% |
| C#CCSc1nnnn1-c1ccc(Br)c(C)c1 | inconclusive: 117% |
| Cc1cc(-c2cc(-c3ccccc3)on2)nc(NC2CCCC2)n1 | inconclusive: 109% |
| Cc1nnc(SCc2nnc(-c3cccs3)o2)s1 | inconclusive: 125% |
| COc1ccc(O)c(C2=Nc3ccccc3N=C(c3ccccc3)C2)c1 | inconclusive: 92.6% |
| CCN(CC)CCOC(=O)c1ccc(NC(=O)CNC(=O)C2CCCCC2)cc1 | inactive: 98.5% |
| Cc1cccn2c(=O)c(/C=C(\C#N)C(=O)NC3CCS(=O)(=O)C3)c(N3CC(C)OC(C)C3)nc12 (stereo not given) | inconclusive: 89.5% |
| COc1ccc(Cc2n[nH]c(=S)n2NC(=O)Nc2ccc(Cl)c(Cl)c2)cc1 | inconclusive: 90.3% |
| CCN(CC)CCCNC(=O)C1c2ccccc2C(=O)N(CCOC)C1c1ccc(F)cc1 (stereo not given) | inconclusive: 95.4% |
| CCN1CCCC(OC(=O)c2cc(-c3ccccc3Cl)nc3ccccc23)C1 (stereo not given) | inactive: 97.1% |
| COCC(C)N1CC(O)=C(c2nc(-c3ccc(Cl)cc3)cs2)C1=N (stereo not given) | inconclusive: 116% |
| N=C1S/C(=C\c2ccco2)C(=O)N1c1ccc2c(c1)OCO2 | inconclusive: 98.2% |
| COCc1ccc(CN2CCCC(CO)(Cc3cccc(OC)c3)C2)o1 (stereo not given) | inconclusive: 126% |
| O=C(CNCc1ccccc1Cl)NCc1ccco1 | inconclusive: 102% |
| COc1ccc2c(C)cc(SCC(=O)Nc3ccc(Cl)cn3)nc2c1 | inactive: 97.9% |
| O=C(CCn1c(=S)oc2ccccc21)NC1CCCCCC1 | inconclusive: 106% |
| CCN(Cc1cc(=O)n2ccsc2n1)Cc1nc2cc(OC)c(OC)cc2c(=O)[nH]1 | inconclusive: 80.1% |
| CC(C)(C)NC(=O)COC(=O)CCC(=O)c1ccc(F)cc1 | inconclusive: 69.9% |
| COc1cccc(C2C(C(=O)c3cc4cccc(OC)c4o3)=C(O)C(=O)N2c2cc(C)on2)c1OC (stereo not given) | active: 11% |

2 compounds picked at random from those above:

| Structure (SMILES) | binding response (% of control) |
| --- | --- |
| CCN(CC)CCOC(=O)c1ccc(NC(=O)CNC(=O)C2CCCCC2)cc1 | inactive: 98.5% |
| COc1cccc(C2C(C(=O)c3cc4cccc(OC)c4o3)=C(O)C(=O)N2c2cc(C)on2)c1OC (stereo not given) | active: 11% |

The results go on:

| Structure (SMILES) | binding response (% of control) |
| --- | --- |
| Fc1cccc(NC(=S)NCc2ccccc2Cl)c1 | inconclusive: -41.1% |
| CCOC(=O)c1cnn(-c2ccccc2)c1NC(=O)CN1CCCCC1 | inconclusive: 108% |
| Fc1cccc(-c2csc(-c3ccno3)n2)c1 | inconclusive: 42.9% |
| CCCOc1ccc2nc(C)c(CCC)c(SC(=N)N)c2c1 | inconclusive: 69.3% |
| CCCCOC(=O)Cn1c(=N)n(CCN(CC)CC)c2ccccc21 | active: 165% [activator] |
| CC1CC(=O)N(CC(=O)Nc2ccc3c(c2)OCO3)c2ccccc2S1 (stereo not given) | inactive: 99.1% |
| CCOc1ccc(NC(=O)CSC(N)=O)cc1 | inactive: 106% |
| O=C(CSc1nccc(-c2cccs2)n1)Nc1cccc(Cl)c1Cl | inconclusive: 73.2% |
| CCOC(=O)c1cncc(C#CCOC(=O)Nc2ccc(OC(F)(F)F)cc2)c1 | inconclusive: 126% |
| COc1ccc(NC(=O)c2nc[nH]c2C(=O)N2CCC(C)CC2)cc1 | inconclusive: 101% |
| COc1ccc2cc3c(N)nn(C(=O)c4ccccc4Cl)c3nc2c1 | inconclusive: 83% |
| Cc1nn(-c2ccccc2)c(Cl)c1/C=N/NC(N)=O | inconclusive: 78.2% |
| NC(=O)NC(=O)COC(=O)c1cccnc1Nc1ccccc1F | inconclusive: 289% |
| O=C(CSc1nccc(=O)[nH]1)NCc1ccco1 | inconclusive: 94% |
| CC(=O)c1c(C)[nH]c(C(=O)OCC(=O)Nc2ccc(Cl)c(S(=O)(=O)N(C)C)c2)c1C | inconclusive: -51.4% |
| COc1ccc(-n2nnnc2/C=C\Nc2ccc(C)cc2)cc1 | inconclusive: 91% |
| CCC(CC)c1nnc(NC(=O)CN2C(=O)c3ccccc3C2=O)s1 | inconclusive: 93.7% |
| COCC(C)NC(=S)Nc1ccccc1[N+](=O)[O-] (stereo not given) | inconclusive: 90.7% |
| COc1ccccc1NC(=O)CC(c1ccc(F)cc1)c1ccco1 (stereo not given) | inconclusive: -48.9% |
| Cc1c(NC(=S)Nc2ccc(Cl)cc2)c(=O)n(-c2ccccc2)n1C | inactive: 102% |
| COc1ccc2[nH]c(=O)c(CN(C(=O)c3cccnc3)c3ccc(C)c(C)c3)cc2c1 | inconclusive: 84.3% |
| Cc1ccn(C)c(=N)c1 | inconclusive: 94.2% |
| CNC(=S)N/N=C(\C)c1cccc(C(F)(F)F)c1 | inconclusive: 101% |

| Structure (SMILES) | binding response (% of control) |
| --- | --- |
| CN(C)C(=O)CS(=O)(=O)c1ccc(Cl)cc1 | inconclusive: 21.1% |
| O=C1CC(NCCc2ccccc2)C(=O)N1CCc1ccccc1 (stereo not given) | inconclusive: 112% |
| O=C(c1ccccc1)c1c2c(cc3sc4ccccc4[n+]13)-c1cccc3cccc-2c13 | active: 199% [activator] |
| CN1C(=O)/C(=C\c2ccco2)N=C1c1ccc(Cl)cc1Cl | inconclusive: 87.4% |
| COc1ccc(-c2csc(-c3ccc(O)cc3)n2)cc1 | inconclusive: 174% |
| O=C(Nc1ccc(F)cc1)C1C2CCC3C(CCC21)C3(Cl)Cl (stereo not given) | inconclusive: 287% |
| Cc1nc(NC(=O)/C=C/c2ccccc2)sc1C(=O)NCCO | inconclusive: 114% |
| COCCNC(=O)c1ccc(CN2CCc3ccccc3C2)cc1 | inactive: 108% |
| O=C(O[C@@H]1OC2COC(=O)c3cc(O)c(O)c(O)c3-c3c(cc(O)c(O)c3O)C(=O)O[C@@H]([C@H]1O)[C@@H]2O)c1cc(O)c(O)c(O)c1 | active: 22.5% |
| COc1ccc(NC(=O)c2cccnc2N2CCOCC2)cc1 | inactive: 99.2% |
| O=C(/C=C/c1ccccc1)N1CCN(c2c(Cl)cccc2[N+](=O)[O-])CC1 | inactive: 104% |
| Cc1ccc(Nc2nnc(-c3ccncc3)s2)c(Br)c1 | inactive: 98.8% |
| CCCN1C(=O)c2cc(C(=O)Nc3ccccc3C)ccc2C1Nc1ccccc1C (stereo not given) | inconclusive: 89.9% |
| O=C(Nc1csc([N+](=O)[O-])c1)Nc1ccccc1Cl | inconclusive: 103% |
| Cc1cc(C)n(CC(O)CN(c2ccccc2)S(=O)(=O)c2ccccc2)n1 (stereo not given) | inactive: 146% |
| COc1ccc(C2CC(c3ccccc3)=NN2C(=O)COC(=O)C2(C)CC2(Cl)Cl)cc1 (stereo not given) | inactive: 86.9% |
| Cn1c(=S)n(CCC(=O)O)c2ccccc21 | inactive: 97.8% |
| CC1CCN(S(=O)(=O)c2ccc3c(c2)oc(=O)n3CC(=O)N2c3ccccc3CC2C)CC1 (stereo not given) | inactive: 91.4% |
| C#CCNC(=O)C1=C[C@@H](C(C)(C)C)C[C@@H](OCc2ccc(CO)cc2)O1 | active: 21.2% |
| CCN(CC)c1nc(C)c(C(=S)Nc2cc([N+](=O)[O-])ccc2Cl)s1 | inconclusive: 107% |
| CCCCN(CCCC)c1nc2ccccc2nc1C(C#N)C(=O)NCCCOC (stereo not given) | inactive: 96.2% |
| CN(C)CCNc1nc2sc3c(c2c(=O)n1-c1ccc(F)cc1)CCCCC3 | inconclusive: 68% |
| Cn1ccnc1SCC(=O)Nc1nc2c(F)c(F)c(F)cc2s1 | inactive: 103% |

Part of the list above, with tabs.
Structure (SMILES)	binding response (% of control)
CCN(CC)CCCNC(=O)C1c2ccccc2C(=O)N(CCOC)C1c1ccc(F)cc1 (stereo not given)	inconclusive: 95.4%
COc1ccc2c(C)cc(SCC(=O)Nc3ccc(Cl)cn3)nc2c1	inactive: 97.9%
O=C(c1ccccc1)c1c2c(cc3sc4ccccc4[n+]13)-c1cccc3cccc-2c13	active: 199% [activator]
C#CCNC(=O)C1=C[C@@H](C(C)(C)C)C[C@@H](OCc2ccc(CO)cc2)O1	active: 21.2%

Following part:

| Structure (SMILES) | binding response (% of control) |
| --- | --- |
| COC(=O)CN1C(=S)N(c2ccc(F)cc2)C(=O)C1CC(=O)Nc1ccc(F)cc1 (stereo not given) | inconclusive: 54.1% |
| S=c1[nH]nc(-c2cc(-c3ccccc3)n[nH]2)n1/N=C/C(Br)=C/c1ccccc1 | inconclusive: -243% |
| COc1ccc(NC(=O)Nc2ccc3c(c2)CCC3)cc1OC | inconclusive: 93.3% |
| CCCC(=O)Nc1c(-c2ccccc2)c(=O)c(C)nn1-c1ccc(C)cc1 | inconclusive: 133% |
| COc1ccc2c(c1)Sc1ccccc1N2 | inconclusive: 101% |
| CN(C(=S)NC(=O)Cc1ccccc1)c1ccccc1 | inactive: 101% |
| NS(=O)(=O)c1ccc(CCNC(=O)c2cc(-c3cc(Cl)ccc3O)n[nH]2)cc1 | inconclusive: 148% |
| N#Cc1ccc(N2CCOCC2)nc1 | inconclusive: 49.5% |
| CC(=O)c1cccc(NC(=S)NNC(=O)c2ccco2)c1 | inconclusive: 81.2% |
| Cc1noc2ncnc(Sc3ccc(Br)cc3)c12 | inconclusive: 98% |
| CCOC(=O)CC(NC(=O)CCc1c(C)nc2ncnn2c1C)c1ccc(C)cc1 (stereo not given) | inactive: 95.2% |
| CCOC(=O)CC1C(=O)NCCN1c1nc2ccc(C)cn2c(=O)c1/C=C1\SC(=S)N(C(C)CC)C1=O (stereo not given) | inconclusive: 49.9% |
| CCCc1[nH]nc2c1C1(CCN(C(=O)OCc3ccccc3)CC1)C(C#N)=C(N)O2 | inactive: 94.7% |
| COCCNC(=O)c1cc2nc(-c3ccc(F)cc3)cc(C(F)(F)F)n2n1 | inactive: 102% |
| COCCCNC(=O)c1ccc2c3c(onc13)-c1ccccc1C2=O | inconclusive: -13.8% |
| Cc1ccc(C(=O)N2CCN(c3ccccn3)CC2)cc1[N+](=O)[O-] | inconclusive: 125% |
| Cc1[nH]c2ccccc2c1N=Nc1c(C)n(C)n(-c2ccccc2)c1=O | inconclusive: 102% |
| O=c1[nH]c2ccccc2nc1C(Nc1ccccc1)c1ccccc1 (stereo not given) | inconclusive: 163% |
| Nc1nc(NCCCN2CCOCC2)nc(Nc2ccc(Cl)cc2)c1[N+](=O)[O-] | inconclusive: 98.3% |
| NC(=O)/C(=C\c1ccccc1)NC(=O)c1ccc(NC(=O)c2ccccc2)cc1 | inconclusive: 122% |
| CC(C)(C)c1ccc(CN2C(=O)CSC2=O)cc1 | inconclusive: 104% |
